Results from ChEMBL document CHEMBL1800056, “Discovery of 2-(6-{[(6-fluoroquinolin-2-yl)methyl]amino}bicyclo[3.1.0]hex-3-yl)-N-hydroxypyrimidine-5-carboxamide (CHR-3996), a class I selective orally active histone deacetylase inhibitor” (J Med Chem, 2010).

Tested on: HuT78
Assay: Antiproliferative activity against human HUT78 cells after 72 hrs by WST-1 assay
Assay type: functional
How it was run: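 Cells seeded at (1-5) × 10³/well in serum-containing medium for 24 h at 37 °C, 5% CO₂. Inhibitor added at 0.6-10000 nM for 72 h, with WST-1 pulse over the final 4 h. Formazan read at 450 nm (reference 650 nm). Expressed as % inhibition of vehicle response; GI50 is the concentration inhibiting 50% of vehicle response; n = 6 replicates.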

Work on O=C(CCCCCCC(=O)Nc1ccccc1)NO [VORINOSTAT] yielded a GI50 of 295 nM.
